# Experimental data: the supplement of paper PMC4683952
# The other results are listed elsewhere or left out. No stated cut-off is given here; in the data, active = 2 or more and inactive = the rest. Repeats in this data set agree poorly, so a single value says little.
# Tested on: Lgr5 (MarsCy1-Lgr5-EGFP, U2OS)
# Assay: cell-surface Lgr5 expression (SCi1 fluorescence, background-subtracted) relative to WT DMSO (fold of DMSO control); higher = more Lgr5 at the plasma membrane
# Settings: U2OS MarsCy1-Lgr5-EGFP stable; treatment time: overnight; library: ActiProbe-5K (TimTec); 25 µM
row,Compound,cell-surface Lgr5 expression
1,COc1cc(S(N)(=O)=O)c(OC)cc1Cl,inactive: 1.2
2,O=C1Nc2ccccc2/C1=N/c1ccc(SC(F)F)cc1,inactive: 1.08
3,O=c1c2c(oc3c1CCCC3)CCCC2,inactive: 0.885
4,N#Cc1sc2nc3c(cc2c1N)CCCC3,inactive: 1.45
5,N#C/N=C(\Nc1ccccc1)SCc1ccccn1,inactive: 1.13
6,CC(C)NC(=O)CSc1nc2[nH]c(=O)cc(O)c2s1,inactive: 1.05
7,NC(=O)c1c(NC(=O)C2C3C=CC(C3)C2C(=O)O)sc2c1CCCC2 (configuration not stated),inactive: 1.35
8,CC12CCC(C(=O)N(CN3CCCCC3)C1=O)C2(C)C (configuration not stated),inactive: 1.1
9,CC(C)Oc1ccc(Oc2nc(NC3CC3)nc(N(C)C)n2)nn1,inactive: 1.16
10,C/C(=N/NC(=O)c1cccs1)c1ccc(Br)s1,inactive: 1.16
11,COc1ccc(Cl)cc1NN,inactive: 1.2
12,CCSc1nc(C)c(Cl)c(C)c1C#N,inactive: 0.968
13,Clc1ncccc1/N=N/c1cccnc1Cl,inactive: 0.725
14,CN1C(=O)C(CO)NC1=S (configuration not stated),inactive: 1.46
15,CC1(C)C(=O)OC(c2ccco2)C2(CCCCC2)C1=O (configuration not stated),inactive: 1.4
16,CCC(Cn1ccnc1)[N+](=O)[O-] (configuration not stated),inactive: 1.12
17,C=CCn1c(C)nnc1S,inactive: 1.09
18,CCOC(=O)N1CCN(C(=O)N2CCOCC2)CC1,inactive: 1.01
19,Cc1ccc2nc(=O)c3cc(F)c(F)c(F)c3n2c1,inactive: 0.54
20,O=S(=O)(NC1C2CC3CC(C2)CC1C3)c1ccccc1 (configuration not stated),inactive: 1.27
21,CS(=O)(=O)Nc1ccc(Cl)cc1Cl,inactive: 1.02
22,COc1ccc2c(c1)sc(=N)n2CCO,inactive: 0.888
23,Oc1c(Br)cc(Br)cc1/C=N\c1cc(Cl)cc(Cl)c1,inactive: 1.05
24,Oc1ccc(Cl)cc1C1=NOC(O)(C(F)(F)F)C1 (configuration not stated),inactive: 1.22

# Five entries from above, tab-delimited.
row	Compound	cell-surface Lgr5 expression
3	O=c1c2c(oc3c1CCCC3)CCCC2	inactive: 0.885
4	N#Cc1sc2nc3c(cc2c1N)CCCC3	inactive: 1.45
8	CC12CCC(C(=O)N(CN3CCCCC3)C1=O)C2(C)C (configuration not stated)	inactive: 1.1
9	CC(C)Oc1ccc(Oc2nc(NC3CC3)nc(N(C)C)n2)nn1	inactive: 1.16
14	CN1C(=O)C(CO)NC1=S (configuration not stated)	inactive: 1.46

# The results go on:

row,Compound,cell-surface Lgr5 expression
1,CSc1ccc(C2Nc3cccc4cccc(c34)N2)cc1,inactive: 0.905
2,Nc1nonc1C(=O)N1CCCCC1,inactive: 1.03
3,Cc1ccsc1/C=C1\SC(=N)NC1=O,inactive: 1.04
4,c1cc2nsnc2cc1COc1ccc2c(c1)CCCC2,inactive: 1.05
5,N#CC1C2(CCCC2)C1(C#N)C(N)=O (configuration not stated),inactive: 1.42
6,O=C(O)CCC1NC(=O)NC1=O (configuration not stated),inactive: 1.12
7,C=CCSc1nc2[nH]c(=O)cc(O)c2s1,inactive: 1.2
8,CC(C)(C)C(=O)c1sc2nc3c(c(-c4cccs4)c2c1N)CCC3,inactive: 1.31
9,CC(/C=N\n1c(S)nnc1C1CCCCC1)=C/c1ccco1,inactive: 1.03
10,O=S(=O)(c1ccsc1)c1ccsc1,inactive: 1.17
11,C=C1CN=C(N(C(=O)Nc2ccccc2)c2ccc(F)cc2F)S1,inactive: 1.84
12,O=C1NC(=S)N/C1=C/c1ccc(-c2ccc3c(c2)COC3=O)o1,inactive: 1.17
13,Cc1n[nH]c(=O)nc1NC1CCCCC1,inactive: 1.18
14,COC(=O)N[C@@H]1CSC[C@@H]1O,inactive: 1.33
15,CC12C=CC(=O)C=C1CCC1C3CC(O)C(O)(C(=O)CO)C3(C)CC(O)C12F (configuration not stated),inactive: 1.48
16,O=C(O)C1C2C=CC(C2)C1C(=O)NCCN1CCOCC1 (configuration not stated),inactive: 1.26
17,CO/N=C(\C(=O)NC1C(=O)N2C(C(=O)[O-])=C(COC(C)=O)CSC12)c1csc(N)n1.[Na+] (configuration not stated),inactive: 1.01
18,CC(C)(C)Sc1cccc2ccccc12,inactive: 1.24
19,O=C(NC1CCCCC1)c1occ2c1OCCO2,inactive: 1.02
20,CC(C)(C)S(=O)(=O)c1ccsc1S(C)(=O)=O,inactive: 1.37
21,CC1(C)C2CCC1(C)C(NC(=O)CSc1nnc(N)s1)C2 (configuration not stated),inactive: 1.3
22,NS(=O)(=O)c1ccc(-n2cccc2/C=N\n2cnnc2)cc1,inactive: 1.11
23,CC(C)(C)c1ccc2c(c1)OCCOCCOCCO2,inactive: 1
24,Cn1c(=O)c2c(nc(-n3ccnc3)n2C)n(C)c1=O,inactive: 1.22

row,Compound,cell-surface Lgr5 expression
1,NC(=O)CNc1n[nH]c(=O)[nH]c1=O,inactive: 0.829
2,CC(=O)NC1(C)CCCCC1,inactive: 0.979
3,COc1ccc2c(c1)C(C)=CC(C)(C)N2,inactive: 1.19
4,N#Cc1ccc(-c2cccs2)[nH]c1=S,inactive: 1.19
5,C(=N/N1CCN(C2c3ccccc3-c3ccccc32)CC1)/c1ccccn1,inactive: 0.806
6,Cn1cnc2[nH]c(=O)[nH]c(=O)c21,inactive: 1.05
7,OC1CCCc2c1[nH]c1ccc(C(F)(F)F)cc21 (configuration not stated),inactive: 1.09
8,Cc1oc2c(Cl)c(Cl)c(O)cc2c1[N+](=O)[O-],inactive: 1.3
9,Clc1ccc2c(c1)C1C=CCC1C(c1cccc3ccccc13)N2 (configuration not stated),inactive: 1.02
10,CCc1nc2[nH]nc(N)c2c2c1COC(C)(C)C2,inactive: 1.32
11,Cc1c(-c2n[nH]cc2Br)cnn1C,inactive: 1.11
12,FC(F)(F)c1ccc(/C=N\n2c(S)nnc2C2CCCCC2)cc1,inactive: 0.958
13,O=C(Oc1nsnc1N1CCOCC1)N1CCOCC1,inactive: 1.13
14,O=C1NCCN1C(=O)Nc1ccc(Cl)c(Cl)c1,inactive: 1.2
15,NCCCN1CCc2ccccc21,inactive: 0.928
16,C[n+]1c(/C=C\Nc2ccccc2)sc2ccccc21.[Cl-],inactive: 1.97
17,C=CCNC(=S)NNC(=O)C(CCC(C)C)CC(C)(C)O (configuration not stated),inactive: 0.952
18,CN(C)c1ccc2nc3c(C(=O)O)cc(=O)c(O)c-3oc2c1,active: 2.23
19,CC1CN(S(C)(=O)=O)CC(C)O1 (configuration not stated),inactive: 1.1
20,C=CCNC(=O)c1scc2c1CCCC2,inactive: 0.921
21,CS(=O)(=O)Nc1ccc(S(=O)(=O)N2CCOCC2)cc1,inactive: 1.05
22,O=C1NCCN1C(=O)Nc1nc(=S)ss1,inactive: 0.97
23,Cc1cc(-c2[nH]c(=O)[nH]c2-c2cc(C)sc2C)c(C)s1,inactive: 1.24
24,CC(C)(C)c1cc(Cc2cc(C(C)(C)C)c(O)c(C(C)(C)C)c2)c(O)c(C(C)(C)C)c1,inactive: 1.29
